Laboratory results published in PMC12040169 (PLOS Biology, 2025).
The other results are listed elsewhere or left out.

system: T1, CTL2-GFP (C. trachomatis L2/434/Bu, GFP-expressing); set-up: species or system HeLa; Intracellular C. trachomatis growth in HeLa cells, bulk GFP fluorescence relative to DMSO; details: bulk GFP, single well; 28.5 h, 10 µM; inhibitor
T1 construct: L2/434/Bu, GFP-expressing

Row | SMILES | % of control remaining
1 | COCCNC(=O)C1CCCN(c2nc3c(-c4ccccc4)csc3c(=O)[nH]2)C1 (stereo not shown) [CBK215497] | 103.618%
2 | COC(=O)[C@@H](C)NC(=O)[C@@H]1CN(C(=O)c2cccc(F)c2)CCN1S(C)(=O)=O [CBK289625] | 135.117%
3 | CCCCC(CC)CN1CNC(=S)NC1 (stereo not shown) [CBK265404] | 100%
4 | COC(=O)C1(Cc2cc(-c3cccc(F)c3)no2)CCOCC1 [CBK285330] | 124.673%
5 | Cc1cnn(CC2CCCN2C(=O)CC2OCCc3ccsc32)c1 (stereo not shown) [CBK305370] | 122.794%
6 | NCCSC1CC(=O)N(Cc2cccs2)C1=O (stereo not shown) [CBK269047C] | 187.305%
7 | Cc1n[n+]2c(C(=O)Nc3ccc(S(=O)(=O)Nc4nccs4)cc3)c(C)[n-]n2c1[N+](=O)[O-] [CBK293983] | 82.8341%
8 | CC(C)(C)OC(=O)N1CCC(C(=O)NCc2ccccn2)CC1 [CBK305696] | 113.145%
9 | COc1cc(CN2CCC(Cc3ccccc3-c3ccccc3)(C(N)=O)CC2)cc(OC)c1 [CBK285912] | 162.746%
10 | Cc1ccc2c(c1)oc(=O)n2CCNC(=O)Cc1c[nH]c2ccccc12 [CBK284473] | 108.569%
11 | Oc1cc(CCc2ccc(F)cc2)nc2ccnn12 [CBK281876] | 118.619%
12 | CCc1nnc(NC(=O)COC(=O)CSc2nc(C)cc(C)n2)s1 [CBK018792] | 112.038%
13 | COc1cc(C(=O)Nc2nc3c(C)cccc3s2)cc(OC)c1OC [CBK287302] | 92.6087%
14 | COC(=O)c1cccn2cc(CN(CC#N)C3CC3)nc12 [CBK305821] | 172.139%
15 | COCc1cn(C2CC(O)C(CO)O2)c(=O)[nH]c1=O (stereo not shown) [CBK201230] | 132.087%
16 | Cn1cc(C2CCCCCN2Cc2cc(Cl)ccc2O)cn1 (stereo not shown) [CBK282941] | 128.906%
17 | COc1ccc(OC)c(C2C(C(=O)c3ccccc3)=C(O)C(=O)N2CCN2CCOCC2)c1 (stereo not shown) [CBK264748] | 113.832%
18 | COc1cccc(-c2cncc(C3CN(Cc4cccc5ncccc45)CCO3)n2)c1 (stereo not shown) [CBK285973] | 75.0258%
19 | CC(=O)Nc1ccc(S(=O)(=O)Nc2cccc(C(=O)O)c2)cc1 [CBK050407] | 100.179%
20 | O=C1c2cccc3cccc(c23)C(=O)N1CCN1CCN(CC(O)COc2ccccc2)CC1 (stereo not shown) [CBK266255] | 122.584%
21 | O=C(/C=C\c1ccccc1)CC1(O)C(=O)N(Cc2cccc3ccccc23)c2ccccc21 (stereo not shown) [CBK264761] | 116.615%
22 | O=C(c1ccc(-c2nccnc2NCCc2c[nH]c3ccccc23)cc1)N1CCOCC1 [CBK036891] | 159.592%
23 | N#Cc1ccc(C(=O)Nc2cncc(OC3CCNCC3)n2)cc1 [CBK036371T] | 128.378%
24 | O=C(CN1C(=O)S/C(=C\C=C\c2ccccc2)C1=O)Nc1cccc2c1C(=O)c1ccccc1C2=O [CBK263870] | 119.755%
25 | Cc1cnn(C2CCCN(C(=O)Cc3cccs3)C2)c1 (stereo not shown) [CBK304832] | 96.0849%
26 | Cc1ccc(NC(=O)c2cncnc2)c(C)n1 [CBK200380] | 118.178%
27 | CC(=O)Nc1ccc(OCC(O)Cn2nc(-c3ccco3)oc2=O)cc1 (stereo not shown) [CBK305615] | 151.005%

Row | SMILES | % of control remaining
28 | O=C(NCc1ccccc1)c1ccc2[nH]c(=O)c(-c3ccccc3)c(O)c2c1 [CBK160318] | 66.1351%
29 | CC(C)[C@H](CO)Nc1cncc(-c2ccccc2CO)n1 [CBK065326] | 95.7416%
30 | c1ccc(CN2CCN(Cc3ccccc3)C2c2ccco2)cc1 [CBK260888] | 100%
31 | O=C(O)c1ccc(NS(=O)(=O)c2ccc(Br)cc2)cc1 [CBK034058] | 118.909%
32 | O=C(N1CCn2cnnc2C1)C1(c2ccccc2)CCCC1 [CBK283926] | 127.213%
33 | COc1ccc(C(=O)N2Cc3nc[nH]c3C[C@H]2c2nc(-c3ccc(OC)cc3)no2)cc1 [CBK288966] | 98.7941%
34 | N#Cc1ccc(C(=O)N2CCN3C(=O)[C@H](Cc4ccc(F)cc4)NC(=O)[C@H]3C2)cc1 [CBK289602] | 103.572%
35 | Cc1ccccc1-c1nnc(-c2ccc(C(=O)N=c3sccn3C)cc2)o1 [CBK298283] | 102.542%
36 | CC(=O)N1C[C@H]2CCCN(S(=O)(=O)c3ccc(F)cc3)[C@H]2C1 [CBK285283] | 129.371%
37 | O=C(NC1CCN(Cc2c(F)cccc2Cl)CC1)c1cccs1 [CBK057035] | 132.056%
38 | CC(C)(C)c1ccc(/C=N/NC(=O)CCSc2ccc(Cl)cc2)cc1 [CBK263696] | 100%
39 | O=c1[nH]nc(SCCCOc2ccc(Cl)cc2)n1C1CC1 [CBK295597] | 80.2266%
40 | COc1ccc(CCCC(=O)Nc2ccc(N3CCNCC3)nc2)cc1OC [CBK028272T] | 100%
41 | CCCOCCCn1ccc2nc(OC)c(C#N)cc2c1=O [CBK307162] | 107.871%
42 | CSc1ccccc1NC(=O)CN(c1ccc(F)cc1)S(=O)(=O)c1ccc2c(c1)OCCO2 [CBK266836] | 191.427%
43 | COc1ccnc(NC(c2cnn(C)c2)[C@H]2C[C@@H](O)C2)n1 (stereo partly shown) [CBK306617] | 125.911%
44 | COCCc1nc(-c2csc(CN(C)C)n2)n(Cc2ccccc2C)n1 [CBK306735] | 116.476%
45 | NS(=O)(=O)c1ccc(NC(=O)CN2CCN(c3cccc(C(F)(F)F)c3)CC2)cc1 [CBK266180] | 203.024%
46 | [O-][S+](CC(O)COc1ccc(Cl)cc1)c1ccccn1 (stereo not shown) [CBK261750] | 100%
47 | Cc1ccc(C(=O)O)cc1NC(=O)C(C)Oc1cccc(Cl)c1 (stereo not shown) [CBK268331] | 119.39%
48 | COc1ccc(CNC(=O)c2sc3ncnc(N(C)C4CCCCC4)c3c2C)cc1 [CBK294431] | 180.142%
49 | CCC1(CC)OC(NCc2ccccc2)=NC1=O [CBK122636] | 124.266%
50 | O=C(Nc1ccncc1)c1ccc2nc[nH]c2c1 [CBK269034] | 120.53%
51 | O=C(Cc1ccc2c(c1)CCCC2)Nc1cccc(-c2nnn[nH]2)c1 [CBK297129] | 126.955%
52 | Cn1cc(C(=O)Nc2ccccc2N2CCNCC2)c2ccccc21 [CBK034141T] | 124.355%
53 | CN1CCN(C(=O)c2c(NS(=O)(=O)/C=C/c3ccccc3)sc3c2CCCC3)CC1 [CBK050417] | 100%
54 | COCC(=O)Nc1ccc(N2CCCC2=O)c(Cl)c1 [CBK256871] | 111.218%

Of the compounds above, 3 contain a COOH group:
Row | SMILES | % of control remaining
19 | CC(=O)Nc1ccc(S(=O)(=O)Nc2cccc(C(=O)O)c2)cc1 [CBK050407] | 100.179%
31 | O=C(O)c1ccc(NS(=O)(=O)c2ccc(Br)cc2)cc1 [CBK034058] | 118.909%
47 | Cc1ccc(C(=O)O)cc1NC(=O)C(C)Oc1cccc(Cl)c1 (stereo not shown) [CBK268331] | 119.39%

Next records follow:

Row | SMILES | % of control remaining
55 | CSc1ccc2cc(CSc3nnc(-c4cccs4)n3CC(=O)O)c(Cl)nc2c1 [CBK295298] | 182.375%
56 | CC(=O)C1=C(C)N(CC2CCCO2)C(=O)C1(NC(=O)c1ccc(C(C)(C)C)cc1)C(F)(F)F (stereo not shown) [CBK268043] | 126.634%
57 | COc1nn(CC(=O)Nc2cccc(CCc3ccncc3)c2)c(=O)c2ccccc12 [CBK285560] | 105.623%
58 | Cc1cc2nc(CC(=O)NN)[nH]c2cc1C [CBK012180] | 122.125%
59 | COc1ccc(Br)c(C(=O)Nc2[nH]nc(O)c2Cc2c(Cl)cccc2Cl)c1 [CBK084554] | 99.0684%
60 | OC(COc1ccc2c(c1)OCO2)CN1CCN(C(c2ccccc2)c2ccccc2)CC1 (stereo not shown) [CBK074854C] | 128.958%
61 | COc1ccccc1C1(O)CCN(Cc2ccccc2OCc2ccc3c(c2)OCO3)CC1 [CBK286337] | 95.9535%
62 | O=C(CC1CCCC1)N1CCC(c2nnc(-c3ccsc3)o2)CC1 [CBK283381] | 70.8963%
63 | Cn1c(=O)oc2cc(S(=O)(=O)NCc3ccccc3)ccc21 [CBK267568] | 133.967%
64 | N#Cc1ccc(CNC(=O)c2ccc(-c3ccc(OC(F)(F)F)cc3)nc2)cc1 [CBK156249] | 100.822%
65 | Cc1cc(=O)n2c3ccccc3n(CC(O)CN3CCN(C(c4ccccc4)c4ccccc4)CC3)c2c1C#N (stereo not shown) [CBK268375] | 132.549%
66 | c1ccc(CN2CCC3(CC2)CNCc2ccccc2O3)cc1 [CBK282605] | 120.945%
67 | FC(F)(F)c1cccc(-c2cnn(-c3ccc4c(c3)OCO4)n2)c1 [CBK112664] | 121.916%
68 | CC(=O)NCC1CC(N2CCSCC2)=NO1 (stereo not shown) [CBK010367] | 101.21%
69 | Cn1cc([C@@H]2CN(Cc3ccc(F)c(F)c3)C[C@H]2N)c2ccncc21 [CBK285179] | 126.304%
70 | S=c1[nH]cnc2scc(-c3ccc(Cl)cc3)c12 [CBK094069] | 124.735%
71 | CCN1CCN(C(=O)CN(c2ccccc2)S(=O)(=O)N(C)C)CC1 [CBK268222] | 96.0595%
72 | O=C(COc1ccc(F)cc1)N1CCCC1c1cccc(Cc2ccc(F)cc2)n1 (stereo not shown) [CBK286235] | 132.309%
73 | Cc1cccc(CN2CCC[C@@H]3CN(C(=O)CC(C)C)C[C@@H]32)n1 [CBK285291] | 124.299%
74 | Cc1[nH]nc(O)c1Cc1ccccc1F [CBK105306] | 62.324%
75 | COc1ccc(C(=O)N(C)C)cc1OC [CBK015550] | 86.1939%
76 | CN(C)C(=O)CN1CC[C@@H](c2ccccc2)[C@H](O)C1 [CBK283979] | 124.07%
77 | COc1ccccc1C(CN)C1CCCCC1 (stereo not shown) [CBK009878] | 128.589%
78 | CCN1CCN(Cc2nc3c(c(=O)n(C)c(=O)n3C)n2CCc2ccccc2)CC1 [CBK269547] | 86.9589%
79 | O=C(NCCCCNC(=O)c1scc(-c2ccccc2)c1C(=O)O)c1scc(-c2ccccc2)c1C(=O)O [CBK296086] | 124.367%
